This assay has as its target T1, ADP-ribosyl cyclase 2 (CD157; BST1) (human, UniProt Q10588 33-293).
T1 construct: Endogenous lipid-anchored BST1 on human cell lines (A549, H226, U937) and on AML patient blasts; also called Bone marrow stromal antigen 1; cell-surface human BST1
T1 sequence: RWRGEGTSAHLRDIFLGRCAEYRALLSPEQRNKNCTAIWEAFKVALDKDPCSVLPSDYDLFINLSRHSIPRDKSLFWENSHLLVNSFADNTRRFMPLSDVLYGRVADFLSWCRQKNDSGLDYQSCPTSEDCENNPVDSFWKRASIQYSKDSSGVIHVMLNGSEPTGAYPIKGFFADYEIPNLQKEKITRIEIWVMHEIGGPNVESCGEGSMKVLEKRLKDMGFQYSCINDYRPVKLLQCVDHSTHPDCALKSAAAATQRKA
Kind of assay: flow cytometry on lymphoblasts from the blood of 20 AML patients.

Results are given in words; binding and its absence hold for the method and conditions named. Some entries that bind do so weakly or less than the wild type.

B1: BST1_A2 (full heavy and light chains, SEQ ID NOs 74 and 76) (antibody, V domains shown)
VH: QVQLVQSGAEVKKPGASVKVSCKASGYSFIEYTINWVRQAPGQGLEWIGNIDPYYGTTYYNQMFTGRATLTVDTSISTAYMELSRLRSDDTAVYYCARGSAWFPYWGQGTLVTVSS
VL: DIQMTQSPSSLSASVGDRVTITCSASSSVTYMYWYQQKPGKAPKLLIYDTSNLASGVPSRFSGSGSGTDYTLTISSLQPEDFATYYCQQWSNYPLTFGQGTKVEIKR
With B1, the binding result is “binds”.
